Results from the supplement of paper PMC12889115.
Some of the results follow. These are raw signals, not scaled to a control.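 First-pass screen: polymyxin B was added at a level that permeabilizes the Salmonella outer membrane while sparing the inner membrane. DMSO wells, with and without polymyxin B, defined maximum growth. Because plates differed from one another, each plate's data were ranked separately and the compounds with the lowest OD600 were carried forward as hits.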

System: Salmonella enterica serovar Typhimurium SL1344
Assay: bacterial growth OD600 after 18 h with compound and polymyxin B; higher = more bacterial growth (less inhibition)
Details: 50 µM, Mueller-Hinton broth

Row | Compound | bacterial growth OD600 (polymyxin B 0.75 µg/mL) | bacterial growth OD600 (polymyxin B 1 µg/mL)
1 | COCc1c(C(=O)NCC2(N3CCOCC3)CCCC2)cnn1-c1nccc(-c2cccs2)n1 | 0.813 | 
2 | O=C1CCCN1CC1CCN(C(=O)C2CCC(=O)N(C3CCCC3)C2)CC1 (stereo not drawn) |  | 0.862
3 | O=C(CCC1CCN(Cc2cccc3c2OCO3)CC1)NCc1cccnc1 |  | 0.014
4 | Cc1ccc2c(CC(=O)NCCN3Cc4ccccc4OC(c4ccccc4F)C3)cc(=O)oc2c1 (stereo not drawn) | 0.803 | 
5 | CCn1cc(C(=O)N2CCc3onc(-c4ccc5c(c4)OCO5)c3C2)cn1 | 0.663 | 
6 | CC1(C)CC(=O)C=C(C(=O)N2CCCC(N3CCN(c4ccccc4F)CC3)C2)O1 (stereo not drawn) |  | 0.991
7 | CCOc1ccccc1CN1CCN(Cc2c(F)cccc2F)CC1CCO (stereo not drawn) |  | 1.09
8 | O=C(CCOc1ccccc1)Nc1ccnn1C1CCN(C2CCOCC2)CC1 |  | 0.751

Two of these compounds, reformatted.
Row,Compound,bacterial growth OD600 (polymyxin B 0.75 µg/mL),bacterial growth OD600 (polymyxin B 1 µg/mL)
4,Cc1ccc2c(CC(=O)NCCN3Cc4ccccc4OC(c4ccccc4F)C3)cc(=O)oc2c1 (stereo not drawn),0.803,
5,CCn1cc(C(=O)N2CCc3onc(-c4ccc5c(c4)OCO5)c3C2)cn1,0.663,
